In patent publication US7485315B2, “Compositions comprising a compound of low solubility and a lipophilic amino acid derivative, uses thereof and process for dissolving a compound of low solubility” (L'Oreal, priority 2001, dated 2009):
Some entries share one result that the patent states for a list of compounds.

Experiment: Solubility in water at 25° C.

Row | SMILES | Solubility in water at 25° C. [%]
1 | CCCCCCCCCCCCNc1ccnc(N)[n+]1[O-] [2-amino-4-dodecylaminopyrimidine 3-oxide] | <1
2 | CCCCCCCC(=O)c1ccc(O)c(C(=O)O)c1 [5-n-octanoylsalicylic acid] | <1
3 | C[C@@H]1CC[C@@]2(OC1)O[C@H]1C[C@H]3[C@@H]4CC=C5C[C@@H](O)CC[C@]5(C)[C@H]4CC[C@]3(C)[C@H]1[C@@H]2C [Diosgenin, 5-spirostene-3-β-ol] | <1
4 | CC(=O)O[C@H]1CC[C@@]2(C)[C@@H](CC[C@@H]3[C@@H]2CC(=O)[C@]2(C)[C@@H]4[C@H](C[C@@H]32)O[C@]2(CC[C@@H](C)CO2)[C@H]4C)C1 [Hecogenin acetate, (3β, 5α, 25R)-3-hydroxyspirostan-12-one (hecogenin acetate)] | <1
5 | CCOC(=O)Nc1ccc(O)cc1 [N-ethoxycarbonyl-para-aminophenol, N-ethoxycarbonyl-4-para-aminophenol] | <1
